Values quoted from earlier work, collected in patent US9771549B2, “Cleansing composition containing oligodynamic metal and efficacy enhancing agent” (Conopco, Inc., priority 2014, dated 2017).
At least one structure is not confirmed: it was looked up by name or label, or the drawing left a doubt.

Details: in water at 25° C.

## [Br][Ag] [Silver bromide]
  Ksp: 5.3e-13 mol/L
